Square brackets hold non-standard residues; d marks the D form. Side chains are listed from the residue outwards. hArg = N=C(N)NCCCC[C@H](N)C(=O)O; ΔPro = O=C(O)[C@@H]1C=CCN1; Dab = NCC[C@H](N)C(=O)O

The nature of this series: general procedure: Fmoc solid-phase peptide synthesis; preloaded Fmoc-Arg(Pbf) Wang resin, 0.39 mmol/g; HATU/DIPEA. The settings on record: whole synthesis, scale of the general procedure 0.5 g resin, TFA.
In turn, H-CLPPR-OH yielded an isolated yield of 65%. For H-K([hArg-Asp-Cys])[Dab][ΔPro]R-OH the value was 46%; for H-CKPRR-OH, 68%; for H-CTKPR-OH, 68%. The result for H-K([hArg-Cys])[Dab][ΔPro]R-OH reads 48%. For “H-CK(hArg)[Dab][ΔPro]R-OH (SMILES N=C(N)NCCCC[C@H](N)C(=O)NCCCC[C@H](NC(=O)[C@@H](N)CS)C(=O)N[C@@H](CCN)C(=O)N1CC=C[C@H]1C(=O)N[C@@H](CCCNC(=N)N)C(=O)O)” the value was 51%; for “H-CDK(hArg)[Dab][ΔPro]R-OH (SMILES N=C(N)NCCCC[C@H](N)C(=O)NCCCC[C@H](NC(=O)[C@H](CC(=O)O)NC(=O)[C@@H](N)CS)C(=O)N[C@@H](CCN)C(=O)N1CC=C[C@H]1C(=O)N[C@@H](CCCNC(=N)N)C(=O)O)”, 41%.

Values taken from publication PMC7175122 (Biomolecules, 2020).
